Record: PubChem BioAssay AID1259258 (Sanger Institute, 2017)
Shown is one part, drawn at random, of 160 reagents. Over the whole deposit, 40 (25%) were called active. 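Each row is one of four siRNAs per gene; a gene counts as confirmed only when several of its siRNAs show synergy.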 Reagents against one gene are numbered here. Further read-outs or replicates are left out here. Not stated in the record: the amount of reagent, the time to read-out.

Aim: 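Kinase knock-downs making colon cancer cells more sensitive to BYL719, cetuximab or trametinib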 (follow-up of hits)
System: human SW48 colorectal cancer cells
Knock-down reagent: single siRNA against human genes
Conditions: anchor drug cetuximab 5 µg/ml, trametinib 10 nM or BYL719 1 µM, or DMSO vehicle alone; assay length not stated
Measurement: 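Synergy score per drug compares siRNA-plus-drug effect with each agent alone; viability, relative to non-targeting pool 2 and replicate-averaged, uses DMSO, cetuximab 5 µg/ml, trametinib 10 nM or BYL719 1 µM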
Scale: synergy score with trametinib and synergy score with BYL719 and synergy score with cetuximab: higher = stronger synergy, more killing than expected
Active means: 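Any one of the three anchor drugs giving a synergy value over 0.10 makes the siRNA a hit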

COASY #1 | synergy score with trametinib = 0.00121; synergy score with BYL719 = -0.0147; synergy score with cetuximab = -0.071; Call = inactive
COASY #2 | synergy score with trametinib = -0.178; synergy score with BYL719 = -0.136; synergy score with cetuximab = -0.223; Call = inactive
COASY #3 | synergy score with trametinib = 0.145; synergy score with BYL719 = -0.022; synergy score with cetuximab = -0.033; Call = active
COASY #4 | synergy score with trametinib = -0.0293; synergy score with BYL719 = -0.125; synergy score with cetuximab = -0.232; Call = inactive
PAK1 #1 | synergy score with trametinib = 0.0738; synergy score with BYL719 = -0.0613; synergy score with cetuximab = -0.0748; Call = inactive
PAK1 #2 | synergy score with trametinib = -0.0985; synergy score with BYL719 = -0.0766; synergy score with cetuximab = 0.00903; Call = inactive
PAK1 #3 | synergy score with trametinib = 0.0893; synergy score with BYL719 = 0.0566; synergy score with cetuximab = -0.119; Call = inactive
PAK1 #4 | synergy score with trametinib = 0.223; synergy score with BYL719 = 0.0516; synergy score with cetuximab = -0.00205; Call = active
PINK1 #1 | synergy score with trametinib = -0.0624; synergy score with BYL719 = -0.23; synergy score with cetuximab = -0.00486; Call = inactive
PINK1 #2 | synergy score with trametinib = 0.126; synergy score with BYL719 = 0.035; synergy score with cetuximab = -0.0488; Call = active
PINK1 #3 | synergy score with trametinib = 0.0157; synergy score with BYL719 = 0.035; synergy score with cetuximab = -0.0215; Call = inactive
PINK1 #4 | synergy score with trametinib = 0.106; synergy score with BYL719 = -0.0674; synergy score with cetuximab = -0.0251; Call = active
BRAF #1 | synergy score with trametinib = 0.127; synergy score with BYL719 = -0.0295; synergy score with cetuximab = -0.0122; Call = active
BRAF #2 | synergy score with trametinib = 0.149; synergy score with BYL719 = -0.0152; synergy score with cetuximab = -0.201; Call = active
BRAF #3 | synergy score with trametinib = -0.113; synergy score with BYL719 = -0.113; synergy score with cetuximab = -0.182; Call = inactive
BRAF #4 | synergy score with trametinib = 0.0172; synergy score with BYL719 = -0.0814; synergy score with cetuximab = -0.165; Call = inactive
HUNK #1 | synergy score with trametinib = 0.0532; synergy score with BYL719 = 0.0424; synergy score with cetuximab = -0.0522; Call = inactive
HUNK #2 | synergy score with trametinib = 0.0794; synergy score with BYL719 = -0.0591; synergy score with cetuximab = 0.0105; Call = inactive
HUNK #3 | synergy score with trametinib = 0.115; synergy score with BYL719 = -0.0158; synergy score with cetuximab = -0.0134; Call = active
HUNK #4 | synergy score with trametinib = 0.0964; synergy score with BYL719 = 0.0955; synergy score with cetuximab = 0.196; Call = active

Sorted by “synergy score with cetuximab” (lowest first): 2 of the entries above.
HUNK #3 | synergy score with trametinib = 0.115; synergy score with BYL719 = -0.0158; synergy score with cetuximab = -0.0134; Call = active
HUNK #4 | synergy score with trametinib = 0.0964; synergy score with BYL719 = 0.0955; synergy score with cetuximab = 0.196; Call = active
